Test results reported in the supplement of paper PMC10849652.
The list shows a part of the results.

Chains of the proteins cited; added tags and fusions are not shown. Lines headed by an entry give the natural chain unless they say otherwise; changes in a name come on top.
UniProt Q70CQ3: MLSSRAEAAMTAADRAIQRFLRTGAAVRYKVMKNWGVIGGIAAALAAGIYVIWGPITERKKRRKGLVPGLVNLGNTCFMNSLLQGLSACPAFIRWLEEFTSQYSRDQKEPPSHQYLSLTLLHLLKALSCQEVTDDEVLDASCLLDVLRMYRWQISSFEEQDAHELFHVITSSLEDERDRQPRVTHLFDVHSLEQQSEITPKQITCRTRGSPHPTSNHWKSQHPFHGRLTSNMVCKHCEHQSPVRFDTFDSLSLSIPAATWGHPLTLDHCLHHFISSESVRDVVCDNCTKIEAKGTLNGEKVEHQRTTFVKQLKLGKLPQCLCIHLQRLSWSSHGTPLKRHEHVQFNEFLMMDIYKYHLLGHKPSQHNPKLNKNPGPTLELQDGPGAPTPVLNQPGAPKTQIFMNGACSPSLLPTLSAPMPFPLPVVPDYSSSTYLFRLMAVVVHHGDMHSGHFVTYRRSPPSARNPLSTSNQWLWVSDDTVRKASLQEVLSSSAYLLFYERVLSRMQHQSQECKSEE
UniProt P47985: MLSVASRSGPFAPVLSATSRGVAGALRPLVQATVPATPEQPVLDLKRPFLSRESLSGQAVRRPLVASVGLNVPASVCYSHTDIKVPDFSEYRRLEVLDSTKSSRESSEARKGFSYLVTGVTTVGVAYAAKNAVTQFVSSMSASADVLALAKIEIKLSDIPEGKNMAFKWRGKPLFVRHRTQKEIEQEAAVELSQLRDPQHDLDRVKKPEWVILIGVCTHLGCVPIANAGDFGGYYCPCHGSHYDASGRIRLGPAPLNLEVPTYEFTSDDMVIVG
UniProt Q9P0L0: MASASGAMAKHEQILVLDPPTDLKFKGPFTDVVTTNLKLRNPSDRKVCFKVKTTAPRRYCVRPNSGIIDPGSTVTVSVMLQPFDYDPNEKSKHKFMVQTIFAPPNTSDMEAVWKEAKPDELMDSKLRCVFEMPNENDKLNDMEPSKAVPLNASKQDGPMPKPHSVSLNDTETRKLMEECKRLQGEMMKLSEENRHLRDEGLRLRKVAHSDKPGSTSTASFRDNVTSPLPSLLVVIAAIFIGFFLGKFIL
UniProt Q9HA47: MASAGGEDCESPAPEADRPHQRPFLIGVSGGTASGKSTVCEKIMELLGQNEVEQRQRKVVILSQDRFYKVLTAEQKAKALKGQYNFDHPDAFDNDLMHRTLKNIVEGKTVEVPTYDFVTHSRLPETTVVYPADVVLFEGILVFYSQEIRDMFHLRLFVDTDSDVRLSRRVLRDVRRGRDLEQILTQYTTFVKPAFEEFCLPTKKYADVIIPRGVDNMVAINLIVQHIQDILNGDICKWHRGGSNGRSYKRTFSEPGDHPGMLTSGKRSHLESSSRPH
UniProt Q9UHD9, whole entry, looked up: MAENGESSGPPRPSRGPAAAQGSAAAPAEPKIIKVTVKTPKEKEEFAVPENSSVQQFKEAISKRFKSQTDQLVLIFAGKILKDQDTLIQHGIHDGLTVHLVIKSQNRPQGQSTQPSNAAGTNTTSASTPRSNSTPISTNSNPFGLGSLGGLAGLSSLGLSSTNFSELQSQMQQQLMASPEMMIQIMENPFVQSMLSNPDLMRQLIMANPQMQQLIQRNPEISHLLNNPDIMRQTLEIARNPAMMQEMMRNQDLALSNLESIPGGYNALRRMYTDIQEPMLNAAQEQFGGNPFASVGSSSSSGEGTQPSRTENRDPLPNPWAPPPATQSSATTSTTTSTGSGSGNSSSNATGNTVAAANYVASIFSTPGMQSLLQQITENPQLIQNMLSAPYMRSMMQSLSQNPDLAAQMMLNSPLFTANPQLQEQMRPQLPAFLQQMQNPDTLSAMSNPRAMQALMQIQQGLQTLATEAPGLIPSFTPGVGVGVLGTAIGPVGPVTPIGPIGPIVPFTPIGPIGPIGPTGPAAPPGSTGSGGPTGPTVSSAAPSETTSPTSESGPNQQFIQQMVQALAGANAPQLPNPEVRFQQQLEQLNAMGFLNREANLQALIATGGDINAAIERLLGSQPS
UniProt P06132: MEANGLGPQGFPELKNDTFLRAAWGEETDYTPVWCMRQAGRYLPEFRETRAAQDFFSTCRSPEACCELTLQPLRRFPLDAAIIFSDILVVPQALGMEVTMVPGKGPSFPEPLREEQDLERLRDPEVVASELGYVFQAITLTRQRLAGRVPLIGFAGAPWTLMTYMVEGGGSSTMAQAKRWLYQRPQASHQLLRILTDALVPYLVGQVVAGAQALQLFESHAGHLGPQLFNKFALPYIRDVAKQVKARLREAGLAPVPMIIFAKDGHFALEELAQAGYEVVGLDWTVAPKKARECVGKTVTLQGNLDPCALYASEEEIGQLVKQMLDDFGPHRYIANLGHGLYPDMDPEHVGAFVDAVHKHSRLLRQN
UniProt P22695: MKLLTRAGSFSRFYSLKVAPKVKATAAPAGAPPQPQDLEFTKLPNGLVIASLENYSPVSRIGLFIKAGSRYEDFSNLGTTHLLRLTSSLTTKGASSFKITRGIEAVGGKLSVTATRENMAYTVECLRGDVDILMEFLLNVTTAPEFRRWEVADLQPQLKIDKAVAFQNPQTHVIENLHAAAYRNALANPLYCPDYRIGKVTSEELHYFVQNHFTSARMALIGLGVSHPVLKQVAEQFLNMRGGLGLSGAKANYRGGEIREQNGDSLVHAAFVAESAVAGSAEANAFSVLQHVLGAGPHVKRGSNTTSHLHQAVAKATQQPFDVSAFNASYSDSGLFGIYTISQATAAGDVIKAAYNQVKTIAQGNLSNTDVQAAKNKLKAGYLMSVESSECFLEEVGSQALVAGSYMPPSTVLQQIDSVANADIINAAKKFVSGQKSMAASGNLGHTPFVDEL
UniProt Q9NUQ7: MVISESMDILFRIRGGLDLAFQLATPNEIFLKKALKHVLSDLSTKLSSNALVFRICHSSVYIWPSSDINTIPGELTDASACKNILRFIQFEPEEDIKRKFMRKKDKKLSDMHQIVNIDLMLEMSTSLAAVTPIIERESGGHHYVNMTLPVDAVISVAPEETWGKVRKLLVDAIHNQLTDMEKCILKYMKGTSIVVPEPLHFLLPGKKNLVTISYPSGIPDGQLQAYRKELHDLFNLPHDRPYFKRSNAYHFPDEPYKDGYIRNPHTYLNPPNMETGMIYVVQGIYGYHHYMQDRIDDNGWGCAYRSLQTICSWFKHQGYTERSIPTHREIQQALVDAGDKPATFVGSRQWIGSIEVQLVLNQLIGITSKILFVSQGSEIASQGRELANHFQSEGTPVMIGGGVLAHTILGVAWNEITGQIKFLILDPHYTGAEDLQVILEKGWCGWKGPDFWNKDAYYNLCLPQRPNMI
UniProt Q9NYU1: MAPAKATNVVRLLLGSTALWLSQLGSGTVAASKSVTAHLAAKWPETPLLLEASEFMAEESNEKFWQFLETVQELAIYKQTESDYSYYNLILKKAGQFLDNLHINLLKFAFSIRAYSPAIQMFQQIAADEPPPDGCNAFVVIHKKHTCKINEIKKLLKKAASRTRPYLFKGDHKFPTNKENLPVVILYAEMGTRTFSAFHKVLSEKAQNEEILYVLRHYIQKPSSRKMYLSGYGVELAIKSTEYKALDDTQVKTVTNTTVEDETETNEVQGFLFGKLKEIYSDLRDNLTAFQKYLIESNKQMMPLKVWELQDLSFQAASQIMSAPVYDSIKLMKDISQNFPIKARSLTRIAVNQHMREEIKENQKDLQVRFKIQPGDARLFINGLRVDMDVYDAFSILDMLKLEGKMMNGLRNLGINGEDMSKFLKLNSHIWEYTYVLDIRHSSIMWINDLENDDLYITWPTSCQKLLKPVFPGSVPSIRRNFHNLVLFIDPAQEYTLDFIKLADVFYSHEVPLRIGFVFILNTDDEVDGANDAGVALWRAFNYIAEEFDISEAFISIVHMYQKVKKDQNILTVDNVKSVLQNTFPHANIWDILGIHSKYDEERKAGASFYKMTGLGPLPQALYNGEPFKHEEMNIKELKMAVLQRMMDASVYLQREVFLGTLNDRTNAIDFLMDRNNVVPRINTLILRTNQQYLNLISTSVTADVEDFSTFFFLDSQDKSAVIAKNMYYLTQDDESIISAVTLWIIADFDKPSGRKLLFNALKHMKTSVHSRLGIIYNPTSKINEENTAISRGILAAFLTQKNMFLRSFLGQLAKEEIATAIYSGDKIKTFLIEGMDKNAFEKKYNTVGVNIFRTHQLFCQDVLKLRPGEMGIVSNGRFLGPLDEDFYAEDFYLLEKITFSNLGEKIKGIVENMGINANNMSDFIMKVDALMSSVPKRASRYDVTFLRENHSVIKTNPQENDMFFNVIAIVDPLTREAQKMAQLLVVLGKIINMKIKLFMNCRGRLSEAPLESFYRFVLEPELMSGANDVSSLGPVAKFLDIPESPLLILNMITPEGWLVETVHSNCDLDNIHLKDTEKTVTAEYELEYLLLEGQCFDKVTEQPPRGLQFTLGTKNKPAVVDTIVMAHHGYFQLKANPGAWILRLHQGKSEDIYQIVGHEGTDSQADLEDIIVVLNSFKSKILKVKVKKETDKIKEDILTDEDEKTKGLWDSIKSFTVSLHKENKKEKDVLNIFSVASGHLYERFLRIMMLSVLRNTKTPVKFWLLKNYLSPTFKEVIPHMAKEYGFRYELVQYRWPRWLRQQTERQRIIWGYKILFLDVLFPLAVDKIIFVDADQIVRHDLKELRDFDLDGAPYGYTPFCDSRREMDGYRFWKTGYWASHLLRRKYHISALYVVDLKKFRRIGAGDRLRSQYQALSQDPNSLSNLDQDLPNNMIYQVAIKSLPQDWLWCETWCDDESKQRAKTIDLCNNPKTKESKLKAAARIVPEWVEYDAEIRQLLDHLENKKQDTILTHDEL
UniProt P13051, whole entry, looked up: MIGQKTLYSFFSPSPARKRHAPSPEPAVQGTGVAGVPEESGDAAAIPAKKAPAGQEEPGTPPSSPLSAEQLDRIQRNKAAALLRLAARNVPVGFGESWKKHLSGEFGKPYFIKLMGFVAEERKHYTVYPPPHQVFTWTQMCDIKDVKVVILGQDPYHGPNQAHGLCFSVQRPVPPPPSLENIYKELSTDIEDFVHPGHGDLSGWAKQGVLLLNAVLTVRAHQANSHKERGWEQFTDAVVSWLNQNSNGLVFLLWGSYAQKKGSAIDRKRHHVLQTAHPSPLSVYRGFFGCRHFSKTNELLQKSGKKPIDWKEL
UniProt P26640: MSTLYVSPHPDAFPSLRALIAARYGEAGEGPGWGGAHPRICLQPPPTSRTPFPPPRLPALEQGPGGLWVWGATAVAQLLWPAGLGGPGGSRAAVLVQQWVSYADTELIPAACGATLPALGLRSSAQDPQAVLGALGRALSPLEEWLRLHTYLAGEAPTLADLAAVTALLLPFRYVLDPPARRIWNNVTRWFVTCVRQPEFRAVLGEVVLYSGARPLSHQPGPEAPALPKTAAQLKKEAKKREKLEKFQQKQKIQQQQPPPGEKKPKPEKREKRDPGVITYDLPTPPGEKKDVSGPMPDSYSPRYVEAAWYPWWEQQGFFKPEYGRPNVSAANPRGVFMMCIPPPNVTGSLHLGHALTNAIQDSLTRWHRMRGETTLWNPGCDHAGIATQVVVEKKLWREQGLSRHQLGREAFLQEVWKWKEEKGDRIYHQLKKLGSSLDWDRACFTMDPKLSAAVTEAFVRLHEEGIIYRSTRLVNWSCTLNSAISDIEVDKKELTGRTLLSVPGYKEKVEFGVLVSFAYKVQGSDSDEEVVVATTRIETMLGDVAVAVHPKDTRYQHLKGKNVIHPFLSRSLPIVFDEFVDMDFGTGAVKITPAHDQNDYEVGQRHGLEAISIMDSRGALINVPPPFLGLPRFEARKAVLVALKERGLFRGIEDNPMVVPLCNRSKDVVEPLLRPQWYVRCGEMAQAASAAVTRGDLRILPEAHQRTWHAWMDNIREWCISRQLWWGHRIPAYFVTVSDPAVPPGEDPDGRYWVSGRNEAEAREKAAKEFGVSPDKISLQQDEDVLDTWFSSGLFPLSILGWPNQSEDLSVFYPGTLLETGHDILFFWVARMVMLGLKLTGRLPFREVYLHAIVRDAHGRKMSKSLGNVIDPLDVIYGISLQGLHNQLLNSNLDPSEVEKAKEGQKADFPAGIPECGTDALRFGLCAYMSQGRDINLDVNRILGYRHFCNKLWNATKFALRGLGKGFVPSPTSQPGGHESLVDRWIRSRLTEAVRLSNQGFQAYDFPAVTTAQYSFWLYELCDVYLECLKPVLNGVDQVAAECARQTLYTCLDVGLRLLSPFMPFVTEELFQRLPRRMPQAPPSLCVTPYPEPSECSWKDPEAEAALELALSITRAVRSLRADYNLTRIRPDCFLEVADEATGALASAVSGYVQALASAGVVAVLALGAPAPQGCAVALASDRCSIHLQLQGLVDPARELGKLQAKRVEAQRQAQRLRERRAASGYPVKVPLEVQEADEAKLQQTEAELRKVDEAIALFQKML
UniProt P10746: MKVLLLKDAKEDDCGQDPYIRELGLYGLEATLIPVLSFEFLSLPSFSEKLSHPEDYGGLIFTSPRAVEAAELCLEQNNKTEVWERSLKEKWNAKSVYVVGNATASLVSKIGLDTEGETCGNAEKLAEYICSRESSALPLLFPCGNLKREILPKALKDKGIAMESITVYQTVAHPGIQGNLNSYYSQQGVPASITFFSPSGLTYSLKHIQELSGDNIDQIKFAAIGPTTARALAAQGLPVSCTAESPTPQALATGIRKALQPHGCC

Key:
Assay in all cases: log2 fold change, soluble protein after heating vs DMSO (PISA); higher = thermal stabilisation; K562 cells, 10 uM, 30 min; active = over 0.2 and 3.5 SD of the protein, either way, in both replicates (recomputed)
[1] = compound: CN1CCN(CCOc2cc(OC3CCOCC3)c3c(Nc4c(Cl)ccc5c4OCO5)ncnc3c2)CC1 [saracatinib]
Method in brief: (§1)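 For each measurement, 10 μM compound was applied for 30 min to K562 cells at 2×10^6 cells/mL. Aliquots were heated for 3 min across 48°C-58°C, pooled, and extracted in PBS with 0.5% NP-40 at 4°C; the supernatant after 21,000xg for 90 min was soluble protein. This was quantified by TMTpro 16plex LC-MS/MS with channel sums equalised, and thermal stability was reported relative to control samples from duplicates, on a log2 fold-change scale.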

[2] = compound: CN1CCN(c2nc(C3=C(c4c[nH]c5ccccc45)C(=O)NC3=O)c3ccccc3n2)CC1 [sotrastaurin]
Method in brief: as §1

[3] = compound: CN1CC[C@H](c2c(O)cc(O)c3c(=O)cc(-c4ccccc4Cl)oc23)[C@H](O)C1 [alvocidib]
Method in brief: as §1

[4] = compound: CN1CCc2c(c3ccccc3n2Cc2ccc(C(=O)NO)cc2)C1 [Tubastatin A]
Method in brief: as §1

[5] = compound: CNC(=O)C1=CC=CC=C1NC2=NC(=NC=C2Cl)NC3=C(C=C(C=C3)N4CCOCC4)OC
Method in brief: as §1

[6] = compound: CNC(=O)c1ccc(Nc2ncc(C(F)(F)F)c(NCc3nccnc3N(C)S(C)(=O)=O)n2)cc1 [defactinib]
Method in brief: as §1

[7] = compound: CNCc1ccc(-c2[nH]c3cc(F)cc4c3c2CCNC4=O)cc1 [rucaparib]
Method in brief: as §1

[8] = compound: CNc1nc(-c2ccc3c(N)n[nH]c3c2)cc(N2C[C@@H](C(=O)NC3CCCCC3)CC[C@H]2C)n1
Method in brief: as §1

[9] = compound: COC(=O)N[C@@H](C)CNc1nccc(-c2cn(C(C)C)nc2-c2cc(Cl)cc(NS(C)(=O)=O)c2F)n1 [encorafenib]
Method in brief: as §1

[10] = compound: COC(=O)[C@H](CCSC)NC(=O)C1=C(C=C(C=C1)NC[C@H](CS)N)C2=CC=CC=C2
Method in brief: as §1

Measured: log2 fold change

UQCRB (UniProt P14927)
inactive: [1] 0.012 | [2] 0.05 | [3] -0.005 | [4] -0.013 | [5] -0.029 | [6] -0.006 | [7] 0.01 | [8] -0.057 | [9] -0.008 | [10] -0.012

USP6NL isoform 2 (UniProt Q92738)
inactive: [1] -0.007 | [2] 0.029 | [3] -0.309 | [4] -0.046 | [5] -0.074 | [6] -0.058 | [7] 0.014 | [8] -0.03 | [9] -0.154 | [10] -0.063

USP30 (UniProt Q70CQ3)
inactive: [1] -0.019 | [2] -0.317 | [3] 0 | [4] 0.053 | [5] 0.109 | [6] -0.047 | [7] 0.023 | [8] -0.094 | [9] -0.064 | [10] 0.392

USP13 (UniProt Q92995)
inactive: [1] -0.007 | [2] 0.064 | [3] -0.027 | [4] -0.101 | [5] 0.076 | [6] -0.032 | [7] 0.024 | [8] 0.006 | [9] -0.067 | [10] 0.027

UBXN7 (UniProt O94888)
inactive: [1] 0.052 | [2] -0.033 | [3] -0.072 | [4] 0.006 | [5] -0.019 | [6] -0.067 | [7] -0.026 | [8] -0.036 | [9] -0.011 | [10] 0.002

UNK (UniProt Q9C0B0)
inactive: [1] -0.007 | [2] -0.097 | [3] -0.078 | [4] -0.009 | [5] -0.004 | [6] -0.057 | [7] 0.119 | [8] -0.08 | [9] -0.07 | [10] 0.127

UQCRFS1 (UniProt P47985)
inactive: [1] -0.013 | [2] 0.009 | [3] -0.006 | [4] -0.014 | [5] 0.059 | [6] -0.034 | [7] -0.042 | [8] -0.048 | [9] -0.046 | [10] 0.023

UCKL1 (UniProt Q9NWZ5)
inactive: [1] -0.01 | [2] 0 | [3] 0.022 | [4] -0.021 | [5] 0.084 | [6] -0.021 | [7] -0.071 | [8] -0.005 | [9] 0.022 | [10] 0.064

VAT1 (UniProt Q99536)
inactive: [1] 0.02 | [2] 0.028 | [3] -0.026 | [4] -0.005 | [5] 0.004 | [6] -0.026 | [7] -0.007 | [8] 0.01 | [9] -0.021 | [10] 0.012

VAPA (UniProt Q9P0L0)
inactive: [1] 0.007 | [2] 0.01 | [3] -0.033 | [4] 0.012 | [5] 0.071 | [6] -0.022 | [7] -0.169 | [8] -0.023 | [9] 0.025 | [10] 0.02

2 records drawn at random from those above, as already listed:
UQCRFS1 (UniProt P47985)
inactive: [1] -0.013 | [2] 0.009 | [3] -0.006 | [4] -0.014 | [5] 0.059 | [6] -0.034 | [7] -0.042 | [8] -0.048 | [9] -0.046 | [10] 0.023

UNK (UniProt Q9C0B0)
inactive: [1] -0.007 | [2] -0.097 | [3] -0.078 | [4] -0.009 | [5] -0.004 | [6] -0.057 | [7] 0.119 | [8] -0.08 | [9] -0.07 | [10] 0.127

(listing goes on)

UCK1 (UniProt Q9HA47)
inactive: [1] -0.031 | [2] -0.003 | [3] -0.01 | [4] -0.017 | [5] -0.029 | [6] -0.031 | [7] 0.011 | [8] -0.056 | [9] 0.054 | [10] 0.028

UBR3 isoform 4 (UniProt Q6ZT12)
inactive: [1] 0 | [2] -0.185 | [3] -0.027 | [4] 0.096 | [5] 0.32 | [6] -0.027 | [7] -0.158 | [8] -0.008 | [9] 0.157 | [10] -0.085

UBQLN2 (UniProt Q9UHD9)
inactive: [1] 0.114 | [2] 0.01 | [3] -0.033 | [4] 0.041 | [5] -0.042 | [6] -0.036 | [7] -0.011 | [8] -0.003 | [9] 0 | [10] -0.033

UMPS (UniProt P11172)
inactive: [1] 0.022 | [2] 0.007 | [3] -0.033 | [4] -0.017 | [5] -0.008 | [6] -0.021 | [7] -0.03 | [8] 0.006 | [9] -0.001 | [10] -0.013

USP22 (UniProt Q9UPT9)
inactive: [1] -0.018 | [2] 0.039 | [3] -0.055 | [4] 0.028 | [5] -0.027 | [6] 0 | [7] 0.127 | [8] -0.046 | [9] 0.002 | [10] -0.131

UPRT (UniProt Q96BW1)
inactive: [1] 0.015 | [2] 0.021 | [3] 0.023 | [5] -0.015 | [6] -0.053 | [7] -0.055 | [8] -0.001 | [9] -0.041 | [10] -0.065

UROD (UniProt P06132)
inactive: [1] -0.046 | [2] 0.046 | [3] -0.01 | [4] -0.007 | [5] -0.042 | [6] 0.019 | [7] 0.02 | [8] -0.029 | [9] -0.025 | [10] 0.038

UBE3C (UniProt Q15386)
inactive: [1] 0.01 | [2] -0.033 | [3] -0.118 | [4] 0.153 | [5] -0.022 | [6] -0.037 | [7] -0.011 | [8] 0.011 | [9] 0.034 | [10] 0.02

UQCRC2 (UniProt P22695)
inactive: [1] 0.021 | [2] 0.032 | [3] -0.038 | [4] -0.015 | [5] -0.023 | [6] -0.012 | [7] -0.006 | [8] -0.01 | [9] -0.035 | [10] 0.008

UFSP2 (UniProt Q9NUQ7)
inactive: [1] 0.029 | [2] -0.036 | [3] -0.056 | [4] -0.009 | [5] 0.021 | [6] -0.048 | [7] -0.005 | [8] 0.046 | [9] 0.02 | [10] -0.08

VCP (UniProt P55072)
inactive: [1] 0.022 | [2] 0.033 | [3] 0.014 | [4] -0.041 | [5] -0.008 | [6] -0.001 | [7] -0.023 | [8] -0.015 | [9] -0.013 | [10] 0.033

UQCRQ (UniProt O14949)
inactive: [1] 0.032 | [2] 0.044 | [3] 0.023 | [4] -0.052 | [5] -0.016 | [6] 0.025 | [7] 0.018 | [8] -0.013 | [9] -0.045 | [10] 0.059

UGGT2 (UniProt Q9NYU1)
inactive: [1] -0.055 | [2] 0.064 | [3] 0.04 | [4] 0.125 | [5] -0.046 | [6] -0.029 | [7] 0.268 | [8] -0.017 | [9] 0.144 | [10] 0.01

UBR4 isoform 2 (UniProt Q5T4S7)
inactive: [1] -0.037 | [2] -0.114 | [3] 0.008 | [4] 0.039 | [5] 0.013 | [6] 0.032 | [7] 0.124 | [8] 0.066 | [9] 0.112 | [10] -0.043

UNG (UniProt P13051)
inactive: [1] 0.086 | [2] 0.03 | [3] -0.178 | [4] 0.024 | [5] -0.031 | [6] -0.043 | [8] -0.008 | [10] 0.033

UNC13D isoform 3 (UniProt Q70J99)
inactive: [1] -0.062 | [2] -0.227 | [3] -0.021 | [4] 0.066 | [5] -0.029 | [6] -0.031 | [7] 0.349 | [8] 0.144 | [9] 0.143 | [10] -0.137

VARS (UniProt P26640)
inactive: [1] -0.029 | [2] -0.032 | [3] -0.011 | [4] 0.006 | [5] 0.043 | [6] -0.023 | [7] 0.091 | [8] 0.012 | [9] 0.08 | [10] -0.02

UROS (UniProt P10746)
inactive: [1] -0.06 | [2] -0.041 | [3] -0.043 | [4] -0.018 | [5] -0.019 | [6] -0.082 | [7] 0.097 | [8] 0.045 | [9] 0.015 | [10] 0.011

USP32 (UniProt Q8NFA0)
inactive: [1] -0.087 | [2] 0.083 | [3] 0.071 | [4] 0.133 | [5] -0.24 | [8] 0.101

URI1 (UniProt O94763)
inactive: [1] -0.012 | [2] 0.026 | [3] 0.027 | [4] 0.059 | [5] -0.053 | [6] -0.018 | [7] 0.002 | [8] -0.033 | [9] -0.021 | [10] 0.008
